Measured values from the supplement of paper PMC11732987, “Enantioselective OTUD7B fragment discovery through chemoproteomics screening and high-throughput optimisation” (Communications Chemistry, 2025).
The other results are listed elsewhere or left out. The data scatter; read single values as rough.

Sequences of proteins named here, by UniProt entry; tags and fusion partners are left off. A change or cut given only in a name is not applied to a line headed by its entry. Residues count along the entry.
UniProt Q96JG6: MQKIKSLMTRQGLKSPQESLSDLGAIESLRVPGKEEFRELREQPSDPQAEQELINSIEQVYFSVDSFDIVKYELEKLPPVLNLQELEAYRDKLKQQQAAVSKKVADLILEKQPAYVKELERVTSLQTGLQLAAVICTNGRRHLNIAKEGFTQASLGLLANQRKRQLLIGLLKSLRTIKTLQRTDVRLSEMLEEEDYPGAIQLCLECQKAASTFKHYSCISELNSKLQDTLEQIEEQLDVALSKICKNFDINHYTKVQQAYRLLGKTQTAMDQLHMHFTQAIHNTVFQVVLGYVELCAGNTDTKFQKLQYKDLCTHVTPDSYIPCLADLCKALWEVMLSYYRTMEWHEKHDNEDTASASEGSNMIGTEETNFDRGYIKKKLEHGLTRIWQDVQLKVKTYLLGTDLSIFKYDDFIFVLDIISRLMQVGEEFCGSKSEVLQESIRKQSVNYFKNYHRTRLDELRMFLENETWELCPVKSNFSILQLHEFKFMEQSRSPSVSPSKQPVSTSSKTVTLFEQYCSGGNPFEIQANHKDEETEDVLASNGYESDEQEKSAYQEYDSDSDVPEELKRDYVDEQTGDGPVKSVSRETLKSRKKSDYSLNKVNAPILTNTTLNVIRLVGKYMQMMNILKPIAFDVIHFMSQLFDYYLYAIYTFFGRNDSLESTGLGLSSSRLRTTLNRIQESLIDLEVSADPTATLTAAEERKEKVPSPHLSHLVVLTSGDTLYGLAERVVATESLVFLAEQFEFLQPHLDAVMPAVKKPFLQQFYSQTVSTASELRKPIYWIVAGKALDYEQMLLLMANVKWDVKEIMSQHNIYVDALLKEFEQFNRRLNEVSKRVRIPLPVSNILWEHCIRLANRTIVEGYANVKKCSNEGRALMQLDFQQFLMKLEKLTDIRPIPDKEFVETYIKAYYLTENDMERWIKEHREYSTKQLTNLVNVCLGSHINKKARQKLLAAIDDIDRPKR
UniProt Q9H6S0: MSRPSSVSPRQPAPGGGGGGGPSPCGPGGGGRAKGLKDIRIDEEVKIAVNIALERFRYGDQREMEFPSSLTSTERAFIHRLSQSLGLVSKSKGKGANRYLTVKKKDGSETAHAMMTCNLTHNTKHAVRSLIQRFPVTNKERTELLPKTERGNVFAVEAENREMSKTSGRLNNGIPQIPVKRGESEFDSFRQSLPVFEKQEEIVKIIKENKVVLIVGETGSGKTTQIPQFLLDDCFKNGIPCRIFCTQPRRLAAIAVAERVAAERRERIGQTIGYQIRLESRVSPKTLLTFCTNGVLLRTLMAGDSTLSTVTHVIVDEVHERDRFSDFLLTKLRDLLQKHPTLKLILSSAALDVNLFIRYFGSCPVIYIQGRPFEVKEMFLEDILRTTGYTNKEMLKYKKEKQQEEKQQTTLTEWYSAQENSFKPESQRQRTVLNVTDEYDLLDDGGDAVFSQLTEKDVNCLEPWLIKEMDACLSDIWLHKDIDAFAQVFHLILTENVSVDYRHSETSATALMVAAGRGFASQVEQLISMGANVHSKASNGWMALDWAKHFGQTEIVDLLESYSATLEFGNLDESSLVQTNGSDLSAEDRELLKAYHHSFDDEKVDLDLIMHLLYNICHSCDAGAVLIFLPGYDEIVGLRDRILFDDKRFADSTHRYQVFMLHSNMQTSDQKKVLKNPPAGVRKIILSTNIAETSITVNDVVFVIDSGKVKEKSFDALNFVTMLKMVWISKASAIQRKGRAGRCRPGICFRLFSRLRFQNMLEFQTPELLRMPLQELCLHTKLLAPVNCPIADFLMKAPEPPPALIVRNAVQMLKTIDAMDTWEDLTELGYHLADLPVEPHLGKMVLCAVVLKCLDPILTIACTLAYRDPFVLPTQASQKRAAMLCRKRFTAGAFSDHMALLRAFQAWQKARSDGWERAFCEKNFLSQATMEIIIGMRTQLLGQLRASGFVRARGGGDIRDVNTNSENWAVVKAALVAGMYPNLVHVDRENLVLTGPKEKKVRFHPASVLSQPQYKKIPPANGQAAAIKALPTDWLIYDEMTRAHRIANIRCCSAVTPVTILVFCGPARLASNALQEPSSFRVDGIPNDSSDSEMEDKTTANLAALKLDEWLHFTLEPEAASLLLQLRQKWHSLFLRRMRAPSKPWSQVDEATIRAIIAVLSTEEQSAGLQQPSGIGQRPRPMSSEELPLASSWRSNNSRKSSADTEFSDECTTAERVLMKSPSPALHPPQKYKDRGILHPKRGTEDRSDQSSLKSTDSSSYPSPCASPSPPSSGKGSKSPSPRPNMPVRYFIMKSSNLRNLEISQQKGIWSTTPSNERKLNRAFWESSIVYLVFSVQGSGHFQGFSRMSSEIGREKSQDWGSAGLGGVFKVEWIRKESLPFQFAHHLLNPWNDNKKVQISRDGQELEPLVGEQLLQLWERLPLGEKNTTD
UniProt A8MPS7: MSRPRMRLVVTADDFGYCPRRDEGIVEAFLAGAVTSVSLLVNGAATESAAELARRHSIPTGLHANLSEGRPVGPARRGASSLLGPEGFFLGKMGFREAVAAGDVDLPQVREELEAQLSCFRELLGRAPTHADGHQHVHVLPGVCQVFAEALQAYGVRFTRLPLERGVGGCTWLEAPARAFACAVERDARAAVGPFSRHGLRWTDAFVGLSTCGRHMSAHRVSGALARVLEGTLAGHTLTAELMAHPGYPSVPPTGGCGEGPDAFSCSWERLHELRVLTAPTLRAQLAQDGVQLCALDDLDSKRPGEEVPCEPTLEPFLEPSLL
UniProt Q6RFH5: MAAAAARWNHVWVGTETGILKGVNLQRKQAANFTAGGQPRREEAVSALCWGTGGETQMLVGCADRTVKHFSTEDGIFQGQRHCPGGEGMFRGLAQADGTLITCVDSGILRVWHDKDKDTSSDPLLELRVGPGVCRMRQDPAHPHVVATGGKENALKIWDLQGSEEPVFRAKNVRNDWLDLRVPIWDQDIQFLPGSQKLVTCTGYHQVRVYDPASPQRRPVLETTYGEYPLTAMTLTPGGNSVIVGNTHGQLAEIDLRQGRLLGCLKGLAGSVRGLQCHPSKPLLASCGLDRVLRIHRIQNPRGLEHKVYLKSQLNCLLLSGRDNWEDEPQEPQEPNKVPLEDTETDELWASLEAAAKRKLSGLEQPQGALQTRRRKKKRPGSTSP
UniProt Q5VIR6: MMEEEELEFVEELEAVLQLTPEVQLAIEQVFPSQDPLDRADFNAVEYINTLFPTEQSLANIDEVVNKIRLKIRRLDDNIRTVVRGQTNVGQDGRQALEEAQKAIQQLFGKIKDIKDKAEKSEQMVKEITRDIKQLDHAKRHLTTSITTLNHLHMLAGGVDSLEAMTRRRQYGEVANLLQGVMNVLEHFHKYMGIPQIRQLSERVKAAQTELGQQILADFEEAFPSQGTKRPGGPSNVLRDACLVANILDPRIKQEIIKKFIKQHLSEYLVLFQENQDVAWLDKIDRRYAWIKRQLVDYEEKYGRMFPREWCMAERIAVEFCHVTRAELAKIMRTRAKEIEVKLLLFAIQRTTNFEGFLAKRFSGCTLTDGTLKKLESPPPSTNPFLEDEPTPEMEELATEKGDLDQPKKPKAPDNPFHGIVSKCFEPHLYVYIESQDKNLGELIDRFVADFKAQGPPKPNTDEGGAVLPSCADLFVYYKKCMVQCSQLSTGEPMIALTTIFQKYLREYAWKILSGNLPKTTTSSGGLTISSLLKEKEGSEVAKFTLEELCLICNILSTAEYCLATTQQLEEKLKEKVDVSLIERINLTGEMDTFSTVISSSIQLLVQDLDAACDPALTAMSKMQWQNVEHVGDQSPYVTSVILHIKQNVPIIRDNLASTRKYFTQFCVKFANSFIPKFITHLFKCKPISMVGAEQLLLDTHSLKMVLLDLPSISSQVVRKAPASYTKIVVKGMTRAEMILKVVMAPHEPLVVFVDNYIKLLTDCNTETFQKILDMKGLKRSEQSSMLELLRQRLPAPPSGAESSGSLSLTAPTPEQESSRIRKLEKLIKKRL
UniProt Q96QU8: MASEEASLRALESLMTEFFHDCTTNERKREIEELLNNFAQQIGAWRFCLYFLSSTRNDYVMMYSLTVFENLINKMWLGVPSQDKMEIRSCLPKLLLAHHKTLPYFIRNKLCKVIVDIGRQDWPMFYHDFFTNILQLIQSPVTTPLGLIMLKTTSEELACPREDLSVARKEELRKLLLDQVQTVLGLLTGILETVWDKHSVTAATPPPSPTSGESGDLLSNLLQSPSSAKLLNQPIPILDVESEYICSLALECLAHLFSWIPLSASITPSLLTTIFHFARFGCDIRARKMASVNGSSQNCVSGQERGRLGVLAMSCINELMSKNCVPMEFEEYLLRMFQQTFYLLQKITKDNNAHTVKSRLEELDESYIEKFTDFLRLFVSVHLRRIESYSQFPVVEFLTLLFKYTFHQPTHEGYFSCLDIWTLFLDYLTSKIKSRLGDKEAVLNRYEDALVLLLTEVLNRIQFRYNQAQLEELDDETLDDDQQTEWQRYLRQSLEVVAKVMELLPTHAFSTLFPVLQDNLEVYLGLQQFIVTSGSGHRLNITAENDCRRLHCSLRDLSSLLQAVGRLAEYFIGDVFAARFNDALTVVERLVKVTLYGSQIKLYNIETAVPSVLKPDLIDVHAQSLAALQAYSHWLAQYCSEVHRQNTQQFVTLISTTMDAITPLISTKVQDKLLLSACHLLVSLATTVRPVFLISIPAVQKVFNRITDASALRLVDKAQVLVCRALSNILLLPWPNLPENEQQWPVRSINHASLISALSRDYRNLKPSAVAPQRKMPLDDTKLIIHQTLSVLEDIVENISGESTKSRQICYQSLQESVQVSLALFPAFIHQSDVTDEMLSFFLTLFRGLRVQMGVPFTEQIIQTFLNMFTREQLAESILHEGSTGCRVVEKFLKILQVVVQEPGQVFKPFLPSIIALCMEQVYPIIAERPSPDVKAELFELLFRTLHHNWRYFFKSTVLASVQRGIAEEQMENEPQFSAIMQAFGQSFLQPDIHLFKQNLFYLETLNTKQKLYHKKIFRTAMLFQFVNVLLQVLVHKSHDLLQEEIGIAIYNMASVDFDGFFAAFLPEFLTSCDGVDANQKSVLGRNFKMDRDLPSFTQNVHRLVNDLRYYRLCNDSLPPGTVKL
UniProt Q8N1B4, 101-125: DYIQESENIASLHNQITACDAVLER
UniProt Q14191: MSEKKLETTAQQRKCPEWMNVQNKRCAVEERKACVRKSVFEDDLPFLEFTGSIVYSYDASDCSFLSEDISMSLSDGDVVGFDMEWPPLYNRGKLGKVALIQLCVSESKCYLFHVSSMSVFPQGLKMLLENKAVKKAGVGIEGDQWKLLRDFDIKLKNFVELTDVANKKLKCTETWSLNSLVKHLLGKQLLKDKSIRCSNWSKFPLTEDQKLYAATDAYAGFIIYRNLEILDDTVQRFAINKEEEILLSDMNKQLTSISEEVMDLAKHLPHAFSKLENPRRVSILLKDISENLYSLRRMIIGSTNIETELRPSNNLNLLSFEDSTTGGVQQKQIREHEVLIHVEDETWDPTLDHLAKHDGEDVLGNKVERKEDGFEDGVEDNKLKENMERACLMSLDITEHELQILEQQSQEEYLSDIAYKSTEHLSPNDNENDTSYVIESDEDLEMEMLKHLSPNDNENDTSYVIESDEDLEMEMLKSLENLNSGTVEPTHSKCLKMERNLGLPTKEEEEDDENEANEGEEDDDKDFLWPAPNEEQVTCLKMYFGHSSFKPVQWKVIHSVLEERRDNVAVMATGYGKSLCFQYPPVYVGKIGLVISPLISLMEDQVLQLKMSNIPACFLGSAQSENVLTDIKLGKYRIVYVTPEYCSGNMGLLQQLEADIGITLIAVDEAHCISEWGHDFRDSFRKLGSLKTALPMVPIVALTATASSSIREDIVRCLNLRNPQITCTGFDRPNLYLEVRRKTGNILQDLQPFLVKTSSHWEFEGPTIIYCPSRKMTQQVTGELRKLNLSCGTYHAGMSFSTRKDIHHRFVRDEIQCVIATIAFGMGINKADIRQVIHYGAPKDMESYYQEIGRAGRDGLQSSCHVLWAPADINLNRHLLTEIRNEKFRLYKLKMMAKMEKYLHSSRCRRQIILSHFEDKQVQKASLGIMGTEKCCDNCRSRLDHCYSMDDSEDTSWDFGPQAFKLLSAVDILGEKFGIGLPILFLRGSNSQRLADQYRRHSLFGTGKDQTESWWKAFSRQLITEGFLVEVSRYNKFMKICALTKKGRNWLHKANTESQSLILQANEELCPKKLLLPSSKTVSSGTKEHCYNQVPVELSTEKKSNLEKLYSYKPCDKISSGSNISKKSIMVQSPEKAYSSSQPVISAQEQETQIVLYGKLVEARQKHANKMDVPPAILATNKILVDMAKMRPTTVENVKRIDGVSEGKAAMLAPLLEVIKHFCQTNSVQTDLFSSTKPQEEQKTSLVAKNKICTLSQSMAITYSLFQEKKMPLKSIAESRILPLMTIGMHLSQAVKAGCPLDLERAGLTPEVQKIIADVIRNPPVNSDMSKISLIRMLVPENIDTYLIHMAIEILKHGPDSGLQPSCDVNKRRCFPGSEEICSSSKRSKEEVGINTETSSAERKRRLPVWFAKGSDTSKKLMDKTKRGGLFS
UniProt Q8IZH2, 392-413: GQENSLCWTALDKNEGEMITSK
UniProt Q7Z5K2, 901-924: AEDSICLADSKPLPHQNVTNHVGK

The targets below were run with ClCC(=O)N[C@@H]1CCCc2ccccc12 (assay: log2 mean competition ratio of IA-DTB cysteine labelling (DMSO/compound) (log2 ratio); higher = stronger cysteine engagement by compound). Settings: 50 µM; treatment time: 4 h; cell line lysate: HEK293T.
Method: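 IA-DTB competitive cysteine chemoproteomics in HEK293T RIPA lysate. Lysates were treated with compound 29 or 30 at 50 or 200 µM for 4 h, then IA-DTB (500 µM, 1 h), trypsin-digested, NeutrAvidin-enriched and analysed by diaPASEF. Competition ratio = intensity DMSO / intensity compound (n=4 treated, n=64 DMSO); binding: mean log2 CR ≥ 1 and p ≤ 0.05 plus QC filters. Target is the cysteine site.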
VPS50 C218 (UniProt Q96JG6) was tested, and the “log2 mean competition ratio” value was 0.276. In the case of YARS1 C501, the “log2 mean competition ratio” value was 0.261. YTHDC2 C1211 (UniProt Q9H6S0) was tested, and the “log2 mean competition ratio” value was -0.263. With WDR81 C215 (UniProt Q562E7) the “log2 mean competition ratio” value was 0.135. In the case of YDJC C18 (UniProt A8MPS7), the “log2 mean competition ratio” value was -0.176. In the case of WDR74 C134 (UniProt Q6RFH5), the “log2 mean competition ratio” value was -0.409. For VPS53 C242 (UniProt Q5VIR6), the “log2 mean competition ratio” value was -0.188. In the case of WNK2 C1153 (UniProt Q9Y3S1), the “log2 mean competition ratio” value was 0.622. With XPO6 C299 (UniProt Q96QU8) the “log2 mean competition ratio” value was -0.298. WDR36 C463 (UniProt Q8NI36) was tested, and the “log2 mean competition ratio” value was -0.34. VPS52 C119 (UniProt Q8N1B4) was tested, and the “log2 mean competition ratio” value was 0.29. In the case of WTAP C90 (UniProt Q15007), the “log2 mean competition ratio” value was -0.143. With VPS54 C886 (UniProt Q9P1Q0) the “log2 mean competition ratio” value was -0.0282. In the case of WRN C1367 (UniProt Q14191), the “log2 mean competition ratio” value was -0.0621. XRN1 C398 (UniProt Q8IZH2) was tested, and the “log2 mean competition ratio” value was 0.0181. In the case of WAPL C906 (UniProt Q7Z5K2), the “log2 mean competition ratio” value was -0.0794. YEATS2 C1173 (UniProt Q9ULM3) was tested, and the “log2 mean competition ratio” value was -0.181. VPS35 C286 was tested, and the “log2 mean competition ratio” value was -0.223. WDR12 C97 (UniProt Q9GZL7) was tested, and the “log2 mean competition ratio” value was 0.411. XPO7 C15 was tested, and the “log2 mean competition ratio” value was -0.0316.

Same assay, conditions: 200 µM; treatment time: 4 h; cell line lysate: HEK293T
VPS50 C218 (UniProt Q96JG6) was tested, and the “log2 mean competition ratio” value was 0.417. For YARS1 C501, the “log2 mean competition ratio” value was -0.003. YTHDC2 C1211 (UniProt Q9H6S0) was tested, and the “log2 mean competition ratio” value was 0.592. WDR81 C215 (UniProt Q562E7) was tested, and the “log2 mean competition ratio” value was -0.112. YDJC C18 (UniProt A8MPS7) was tested, and the “log2 mean competition ratio” value was 0.209. For WDR74 C134 (UniProt Q6RFH5), the “log2 mean competition ratio” value was -0.0574. VPS53 C242 (UniProt Q5VIR6) was tested, and the “log2 mean competition ratio” value was -0.186. With WNK2 C1153 (UniProt Q9Y3S1) the “log2 mean competition ratio” value was -0.12. For XPO6 C299 (UniProt Q96QU8), the “log2 mean competition ratio” value was 0.335. WDR36 C463 (UniProt Q8NI36) was tested, and the “log2 mean competition ratio” value was 0.0415. VPS52 C119 (UniProt Q8N1B4) was tested, and the “log2 mean competition ratio” value was -0.0705. In the case of WTAP C90 (UniProt Q15007), the “log2 mean competition ratio” value was -0.344. VPS54 C886 (UniProt Q9P1Q0) was tested, and the “log2 mean competition ratio” value was 0.254. In the case of WRN C1367 (UniProt Q14191), the “log2 mean competition ratio” value was 0.0841. For XRN1 C398 (UniProt Q8IZH2), the “log2 mean competition ratio” value was 0.556. For WAPL C906 (UniProt Q7Z5K2), the “log2 mean competition ratio” value was 0.0571. With YEATS2 C1173 (UniProt Q9ULM3) the “log2 mean competition ratio” value was 0.258. With VPS35 C286 the “log2 mean competition ratio” value was -0.244. In the case of WDR12 C97 (UniProt Q9GZL7), the “log2 mean competition ratio” value was -0.104. For XPO7 C15, the “log2 mean competition ratio” value was 0.158.
